From the supplement of paper PMC10849652
The other results are listed elsewhere or left out.

Sequences of proteins named here, by UniProt entry; tags and fusion partners are left off. A change or cut given only in a name is not applied to a line headed by its entry.
UniProt Q96A65: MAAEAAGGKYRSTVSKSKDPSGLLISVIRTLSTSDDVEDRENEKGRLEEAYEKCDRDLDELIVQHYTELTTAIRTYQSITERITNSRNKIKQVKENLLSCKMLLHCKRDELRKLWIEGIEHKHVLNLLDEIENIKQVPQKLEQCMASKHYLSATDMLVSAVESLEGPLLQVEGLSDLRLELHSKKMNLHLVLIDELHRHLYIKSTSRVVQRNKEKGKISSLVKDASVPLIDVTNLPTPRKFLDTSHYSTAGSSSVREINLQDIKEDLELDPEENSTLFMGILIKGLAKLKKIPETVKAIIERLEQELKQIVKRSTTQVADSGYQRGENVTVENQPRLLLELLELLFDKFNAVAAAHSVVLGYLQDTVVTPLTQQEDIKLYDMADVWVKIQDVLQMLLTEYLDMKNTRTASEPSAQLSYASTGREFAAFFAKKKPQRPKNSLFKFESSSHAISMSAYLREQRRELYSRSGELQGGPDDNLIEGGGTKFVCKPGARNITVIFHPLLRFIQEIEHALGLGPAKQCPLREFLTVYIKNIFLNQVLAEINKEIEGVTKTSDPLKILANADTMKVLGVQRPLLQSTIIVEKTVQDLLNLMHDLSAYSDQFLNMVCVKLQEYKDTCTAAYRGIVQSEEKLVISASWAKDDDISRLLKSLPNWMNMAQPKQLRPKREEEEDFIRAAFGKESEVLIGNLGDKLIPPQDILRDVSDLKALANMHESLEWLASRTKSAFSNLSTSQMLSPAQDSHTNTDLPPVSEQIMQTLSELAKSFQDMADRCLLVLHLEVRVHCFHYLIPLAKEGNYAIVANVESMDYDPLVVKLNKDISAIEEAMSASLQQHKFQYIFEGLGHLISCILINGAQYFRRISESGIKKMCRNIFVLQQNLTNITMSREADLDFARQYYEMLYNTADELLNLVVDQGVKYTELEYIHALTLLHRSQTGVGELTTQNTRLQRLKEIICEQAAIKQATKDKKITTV
UniProt Q96HE7: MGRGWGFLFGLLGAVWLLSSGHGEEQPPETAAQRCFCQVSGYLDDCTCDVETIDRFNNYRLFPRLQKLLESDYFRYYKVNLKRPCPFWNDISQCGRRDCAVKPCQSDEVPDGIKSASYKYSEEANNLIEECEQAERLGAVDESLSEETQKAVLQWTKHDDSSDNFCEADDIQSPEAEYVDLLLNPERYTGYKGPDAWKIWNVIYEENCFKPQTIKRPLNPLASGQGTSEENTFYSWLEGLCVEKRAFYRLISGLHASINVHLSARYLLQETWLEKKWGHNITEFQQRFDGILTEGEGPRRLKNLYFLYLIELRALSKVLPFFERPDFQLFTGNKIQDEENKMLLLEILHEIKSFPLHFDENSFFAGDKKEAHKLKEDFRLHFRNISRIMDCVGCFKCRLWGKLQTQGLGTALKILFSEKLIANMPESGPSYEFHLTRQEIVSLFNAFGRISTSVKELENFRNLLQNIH
UniProt Q9Y2C4: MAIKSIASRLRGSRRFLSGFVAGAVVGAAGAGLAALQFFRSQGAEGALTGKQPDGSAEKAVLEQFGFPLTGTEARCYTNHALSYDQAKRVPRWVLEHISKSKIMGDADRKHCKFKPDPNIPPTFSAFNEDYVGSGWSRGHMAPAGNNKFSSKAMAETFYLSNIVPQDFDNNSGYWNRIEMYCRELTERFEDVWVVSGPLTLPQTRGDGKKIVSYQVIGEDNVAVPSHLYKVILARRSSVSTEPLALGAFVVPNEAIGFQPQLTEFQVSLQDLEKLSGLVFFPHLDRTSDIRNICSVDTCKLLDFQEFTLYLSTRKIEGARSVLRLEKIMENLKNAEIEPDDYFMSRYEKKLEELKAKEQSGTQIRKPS
UniProt Q8IYI6: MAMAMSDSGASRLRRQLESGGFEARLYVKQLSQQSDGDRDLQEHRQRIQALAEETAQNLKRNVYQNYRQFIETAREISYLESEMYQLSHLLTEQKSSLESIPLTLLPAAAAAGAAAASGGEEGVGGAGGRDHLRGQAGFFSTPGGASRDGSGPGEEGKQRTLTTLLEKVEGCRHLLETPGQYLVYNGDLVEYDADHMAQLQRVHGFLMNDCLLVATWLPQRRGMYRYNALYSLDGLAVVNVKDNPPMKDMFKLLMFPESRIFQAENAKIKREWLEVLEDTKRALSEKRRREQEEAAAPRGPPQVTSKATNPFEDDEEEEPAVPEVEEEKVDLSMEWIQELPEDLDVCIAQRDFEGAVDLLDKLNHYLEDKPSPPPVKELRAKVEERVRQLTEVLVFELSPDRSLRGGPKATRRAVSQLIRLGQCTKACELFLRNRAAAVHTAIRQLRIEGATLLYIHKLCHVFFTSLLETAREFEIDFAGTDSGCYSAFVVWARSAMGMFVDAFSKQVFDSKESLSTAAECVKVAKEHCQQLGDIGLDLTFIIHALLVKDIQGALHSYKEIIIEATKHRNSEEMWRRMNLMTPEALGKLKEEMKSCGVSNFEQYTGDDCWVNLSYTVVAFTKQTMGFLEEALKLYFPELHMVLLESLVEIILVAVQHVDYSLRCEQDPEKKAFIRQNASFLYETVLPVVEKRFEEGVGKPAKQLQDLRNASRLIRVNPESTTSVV
UniProt Q9H098: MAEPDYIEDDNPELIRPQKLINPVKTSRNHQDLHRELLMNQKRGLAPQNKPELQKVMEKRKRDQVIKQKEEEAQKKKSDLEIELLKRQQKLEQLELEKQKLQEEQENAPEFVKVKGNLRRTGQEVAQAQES
UniProt P00742, whole entry, looked up: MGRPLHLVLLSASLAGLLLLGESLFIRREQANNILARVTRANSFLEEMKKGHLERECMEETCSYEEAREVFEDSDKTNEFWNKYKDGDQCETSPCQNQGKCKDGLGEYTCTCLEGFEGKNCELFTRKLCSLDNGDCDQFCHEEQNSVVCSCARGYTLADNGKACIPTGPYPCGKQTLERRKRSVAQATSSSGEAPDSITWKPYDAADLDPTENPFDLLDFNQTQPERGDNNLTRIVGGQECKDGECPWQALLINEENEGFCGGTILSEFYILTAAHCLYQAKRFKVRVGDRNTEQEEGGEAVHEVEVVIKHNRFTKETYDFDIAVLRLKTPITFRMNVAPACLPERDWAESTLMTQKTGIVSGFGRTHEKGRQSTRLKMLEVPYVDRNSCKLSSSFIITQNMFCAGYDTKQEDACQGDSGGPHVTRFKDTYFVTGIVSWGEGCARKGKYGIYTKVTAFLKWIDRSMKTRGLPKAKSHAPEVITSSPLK
UniProt Q5RKV6, whole entry, looked up: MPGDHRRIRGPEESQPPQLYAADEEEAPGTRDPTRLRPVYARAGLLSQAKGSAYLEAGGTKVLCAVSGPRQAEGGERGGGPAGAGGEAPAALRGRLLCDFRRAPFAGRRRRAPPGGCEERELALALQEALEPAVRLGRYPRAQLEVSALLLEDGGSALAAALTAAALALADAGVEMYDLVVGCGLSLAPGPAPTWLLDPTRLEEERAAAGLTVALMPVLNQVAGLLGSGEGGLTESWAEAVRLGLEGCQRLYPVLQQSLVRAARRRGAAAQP
UniProt Q01844: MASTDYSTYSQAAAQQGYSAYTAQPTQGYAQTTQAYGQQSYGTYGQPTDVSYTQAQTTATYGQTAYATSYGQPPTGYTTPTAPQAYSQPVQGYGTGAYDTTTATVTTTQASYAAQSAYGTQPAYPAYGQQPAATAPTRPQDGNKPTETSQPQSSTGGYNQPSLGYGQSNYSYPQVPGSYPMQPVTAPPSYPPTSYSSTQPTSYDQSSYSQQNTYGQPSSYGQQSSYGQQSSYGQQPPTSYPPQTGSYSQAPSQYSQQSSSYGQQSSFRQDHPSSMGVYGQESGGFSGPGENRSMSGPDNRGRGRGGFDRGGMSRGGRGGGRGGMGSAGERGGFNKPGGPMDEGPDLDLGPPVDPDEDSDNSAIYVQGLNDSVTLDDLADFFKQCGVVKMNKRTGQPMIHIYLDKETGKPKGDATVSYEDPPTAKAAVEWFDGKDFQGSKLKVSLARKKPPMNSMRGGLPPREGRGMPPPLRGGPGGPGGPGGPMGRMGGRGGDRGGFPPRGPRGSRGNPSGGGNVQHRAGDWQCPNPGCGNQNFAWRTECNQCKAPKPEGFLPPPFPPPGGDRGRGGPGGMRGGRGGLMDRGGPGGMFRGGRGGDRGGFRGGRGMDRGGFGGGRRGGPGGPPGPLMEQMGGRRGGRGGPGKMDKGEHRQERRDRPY
UniProt P98173: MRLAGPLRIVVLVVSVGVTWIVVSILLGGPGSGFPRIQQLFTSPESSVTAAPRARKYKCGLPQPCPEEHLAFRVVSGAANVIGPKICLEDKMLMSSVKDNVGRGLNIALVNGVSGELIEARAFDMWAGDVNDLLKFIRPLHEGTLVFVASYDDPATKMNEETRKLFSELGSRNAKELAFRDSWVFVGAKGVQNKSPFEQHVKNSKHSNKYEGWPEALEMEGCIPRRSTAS
UniProt Q92520: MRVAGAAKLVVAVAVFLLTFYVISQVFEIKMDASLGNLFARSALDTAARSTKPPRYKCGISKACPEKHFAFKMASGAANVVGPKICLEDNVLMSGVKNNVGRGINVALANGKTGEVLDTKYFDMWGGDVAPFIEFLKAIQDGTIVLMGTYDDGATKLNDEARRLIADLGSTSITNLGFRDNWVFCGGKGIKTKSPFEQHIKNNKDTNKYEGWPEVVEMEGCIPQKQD
UniProt Q16134: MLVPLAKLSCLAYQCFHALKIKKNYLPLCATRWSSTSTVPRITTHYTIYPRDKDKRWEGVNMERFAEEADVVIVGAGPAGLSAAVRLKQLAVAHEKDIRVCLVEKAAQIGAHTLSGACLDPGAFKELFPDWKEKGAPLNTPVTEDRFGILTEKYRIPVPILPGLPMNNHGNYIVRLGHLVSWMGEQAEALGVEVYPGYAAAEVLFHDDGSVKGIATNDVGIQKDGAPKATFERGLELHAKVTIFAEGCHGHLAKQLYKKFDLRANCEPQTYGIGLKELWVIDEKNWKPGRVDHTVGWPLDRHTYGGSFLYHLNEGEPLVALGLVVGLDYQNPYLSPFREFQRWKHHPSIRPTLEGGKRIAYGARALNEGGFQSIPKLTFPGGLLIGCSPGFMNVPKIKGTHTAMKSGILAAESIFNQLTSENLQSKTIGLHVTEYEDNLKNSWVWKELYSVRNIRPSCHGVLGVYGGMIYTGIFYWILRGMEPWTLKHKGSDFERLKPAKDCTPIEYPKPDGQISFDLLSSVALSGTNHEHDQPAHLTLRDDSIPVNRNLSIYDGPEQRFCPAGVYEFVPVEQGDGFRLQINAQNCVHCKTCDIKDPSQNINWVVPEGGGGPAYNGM
UniProt Q6P2I3: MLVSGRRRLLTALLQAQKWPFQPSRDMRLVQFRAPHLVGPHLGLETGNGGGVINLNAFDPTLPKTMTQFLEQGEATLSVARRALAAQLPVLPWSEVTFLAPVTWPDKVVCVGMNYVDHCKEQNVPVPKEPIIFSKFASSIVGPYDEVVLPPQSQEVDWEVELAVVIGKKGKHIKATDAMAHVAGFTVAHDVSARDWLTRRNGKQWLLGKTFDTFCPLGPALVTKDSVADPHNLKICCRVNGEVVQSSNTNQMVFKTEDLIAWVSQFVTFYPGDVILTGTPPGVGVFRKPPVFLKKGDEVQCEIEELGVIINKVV
UniProt O00471: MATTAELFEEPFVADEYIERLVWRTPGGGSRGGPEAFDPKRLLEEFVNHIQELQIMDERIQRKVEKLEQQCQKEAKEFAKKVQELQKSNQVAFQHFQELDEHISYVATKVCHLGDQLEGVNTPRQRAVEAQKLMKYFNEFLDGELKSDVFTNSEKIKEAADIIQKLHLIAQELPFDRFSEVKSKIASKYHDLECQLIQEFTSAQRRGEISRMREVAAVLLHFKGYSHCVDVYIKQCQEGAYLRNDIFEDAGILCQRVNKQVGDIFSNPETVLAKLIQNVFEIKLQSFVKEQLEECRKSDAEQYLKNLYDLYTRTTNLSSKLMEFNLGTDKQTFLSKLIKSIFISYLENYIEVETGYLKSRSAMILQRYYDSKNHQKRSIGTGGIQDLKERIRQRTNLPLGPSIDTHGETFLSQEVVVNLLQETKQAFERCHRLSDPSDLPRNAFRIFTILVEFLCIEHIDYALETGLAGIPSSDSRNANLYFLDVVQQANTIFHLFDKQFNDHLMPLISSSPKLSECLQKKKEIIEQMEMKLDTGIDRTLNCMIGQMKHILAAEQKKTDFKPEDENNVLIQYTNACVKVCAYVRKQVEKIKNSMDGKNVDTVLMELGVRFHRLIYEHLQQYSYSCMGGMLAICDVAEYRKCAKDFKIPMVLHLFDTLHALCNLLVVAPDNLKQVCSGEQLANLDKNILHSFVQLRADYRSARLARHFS
UniProt Q9BS26: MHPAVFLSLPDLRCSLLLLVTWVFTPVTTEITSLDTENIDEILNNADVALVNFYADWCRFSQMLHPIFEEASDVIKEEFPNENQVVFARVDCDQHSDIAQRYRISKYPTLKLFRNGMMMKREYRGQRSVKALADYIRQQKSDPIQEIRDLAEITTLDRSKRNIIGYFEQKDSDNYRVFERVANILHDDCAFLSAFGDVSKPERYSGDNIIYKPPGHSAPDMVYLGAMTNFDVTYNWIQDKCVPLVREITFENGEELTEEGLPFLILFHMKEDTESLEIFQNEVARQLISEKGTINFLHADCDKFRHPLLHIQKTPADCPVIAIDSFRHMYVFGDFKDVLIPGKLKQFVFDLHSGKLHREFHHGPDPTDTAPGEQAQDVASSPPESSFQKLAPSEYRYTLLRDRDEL

Tests used:
Test in all cases: log2 fold change, soluble protein after heating vs DMSO (PISA); higher = thermal stabilisation; K562 lysate, 10 uM; active = over 0.2 and 3.5 SD of the protein, either way, in both replicates (recomputed)
[1] = compound: C1=CC=C(C=C1)[C@H](COC2=CC3=C(C=C2)NC(=O)N3)NC(=O)C4=CC=CN(C4=O)CC5=CC(=C(C=C5)F)F
Summary of the method: (§1)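 Thermal stability, expressed as log-two fold change relative to solvent controls, is given from duplicates. Crude K562 extract in PBS pH 7.4 with 1 mM MgCl2, at 1 mg/mL protein, was treated with 10 μM compound for 30 min and heated in aliquots for 3 min across 48°C-58°C. After pooling, adjustment to 0.5% NP-40 at 4°C and centrifugation at 21,000xg for 90 min, supernatant protein was measured by TMTpro 16plex LC-MS/MS with channel sums equalised.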

[2] = compound: CC1=C(SC2=C1C(=N[C@H](C3=NN=C(N32)C)CC(=O)N)C4=CC=C(C=C4)Cl)C
Summary of the method: as §1

[3] = compound: CC1=C2C(=CC=C1)N=C(N(C2=O)C3=CC=CC=C3C)CN4C=NC5=C(N=CN=C54)N
Summary of the method: as §1

[4] = compound: Cc1sc2c(c1C)C(c1ccc(Cl)cc1)=N[C@@H](CC(=O)OC(C)(C)C)c1nnc(C)n1-2
Summary of the method: as §1

[5] = compound: c1ccc([C@@H]2C[C@H]2NC2CCNCC2)cc1
Summary of the method: as §1

Measured: log2 fold change

EXOC4 (UniProt Q96A65)
inactive: [1] -0.001 | [2] 0.009 | [3] 0.016 | [4] 0.063 | [5] 0.054

ERO1A (UniProt Q96HE7)
inactive: [1] -0.002 | [2] 0.003 | [3] 0.001 | [4] -0.012 | [5] 0.04

EXOG (UniProt Q9Y2C4)
inactive: [1] -0.133 | [2] 0.106 | [3] -0.039 | [4] 0.023 | [5] -0.025

ESPL1 (UniProt Q14674)
inactive: [1] 0.016 | [2] 0.129 | [3] 0.251 | [4] 0.136 | [5] 0.077

EXOC8 (UniProt Q8IYI6)
inactive: [1] -0.025 | [2] 0.013 | [3] 0.026 | [4] -0.021 | [5] 0.037

Looked up one by one from the list above, two records:
EXOG (UniProt Q9Y2C4)
inactive: [1] -0.133 | [2] 0.106 | [3] -0.039 | [4] 0.023 | [5] -0.025

ERO1A (UniProt Q96HE7)
inactive: [1] -0.002 | [2] 0.003 | [3] 0.001 | [4] -0.012 | [5] 0.04

Remaining list, next part:

ETFA (UniProt P13804)
inactive: [1] -0.01 | [2] 0.006 | [3] 0.022 | [4] -0.041 | [5] 0

FAM107B isoform 2 (UniProt Q9H098)
inactive: [1] 0 | [2] 0.023 | [3] 0.17 | [4] -0.163 | [5] -0.022

F10 (UniProt P00742)
inactive: [1] -0.047 | [2] -0.053

EXOSC6 (UniProt Q5RKV6)
inactive: [1] 0.005 | [2] 0.01 | [3] 0.015 | [4] -0.046 | [5] 0.005

ERMAP (UniProt Q96PL5)
inactive: [1] 0.068 | [2] 0.082 | [3] 0.016 | [4] 0.028 | [5] -0.092

EWSR1 isoform 5 (UniProt Q01844)
inactive: [1] 0.047 | [2] -0.024 | [3] -0.012 | [4] 0.053 | [5] 0.002

ESYT2 (UniProt H7BXI1)
inactive: [1] 0.004 | [2] 0.018 | [3] -0.001 | [4] 0.048 | [5] 0.036

FAM3A (UniProt P98173)
inactive: [1] -0.044 | [2] -0.011 | [3] -0.011 | [4] 0.014 | [5] 0.035

F2 (UniProt P00734)
inactive: [1] 0.02 | [2] -0.044

FAF1 (UniProt Q9UNN5)
inactive: [1] 0.017 | [2] -0.002 | [3] -0.01 | [4] -0.032 | [5] -0.018

FAM49B, A0A1W2PRQ0
inactive: [1] 0.177 | [2] -0.006 | [3] -0.014

EXOSC8 (UniProt Q96B26)
inactive: [1] 0.035 | [2] 0 | [3] -0.051 | [4] -0.061 | [5] -0.01

FAM3C (UniProt Q92520)
inactive: [1] 0.031 | [2] -0.02 | [3] -0.003 | [4] 0.048 | [5] -0.075

FAM117A (UniProt Q9C073)
inactive: [1] 0.016 | [2] 0.004 | [3] -0.026 | [4] 0.013 | [5] 0.046

ETFDH (UniProt Q16134)
inactive: [1] 0.027 | [2] 0.013 | [3] 0.016 | [4] -0.038 | [5] 0.045

FAHD2B (UniProt Q6P2I3)
inactive: [1] 0.007 | [2] -0.006 | [3] -0.02 | [4] -0.161 | [5] 0.004

FAM114A2 (UniProt Q9NRY5)
inactive: [1] 0.073 | [2] -0.002 | [3] -0.027 | [4] 0.019 | [5] 0.035

ERLEC1 (UniProt Q96DZ1)
inactive: [1] 0.034 | [2] 0.005 | [3] 0.041 | [4] 0.025 | [5] -0.005

FAM222B (UniProt Q8WU58)
inactive: [1] -0.138 | [2] 0.099 | [3] -0.059 | [4] -0.033

EXOC5 (UniProt O00471)
inactive: [1] -0.065 | [2] -0.002 | [3] 0.068 | [4] -0.023 | [5] 0.035

ERP44 (UniProt Q9BS26)
inactive: [1] 0.055 | [2] 0.012 | [3] 0.036 | [4] -0.01 | [5] -0.046
